Results published in patent US20230333019A1, “TWO-PHOTON FLUORESCENT PROBES FOR SIMULTANEOUSLY DETECTING CALCIUM IONS IN ORGANELLES AND LYSOSOMAL PROTONS” (Korea University Research and Business Foundation, priority 2022, published 2023).

test system: HeLa cells; assay: Effective TP action cross-section (Φδeff) in probe-labeled cells; format: cell-based; conditions: bright spots in HeLa cells
Procedure: Φδ and Φδeff for the probes were evaluated using the fluorescence method as reported in other studies (Chem. Asian J. 2015, 10(10):2240-2249).

Compound	Effective concentration ceff = Φδeff/Φδmax
O=C([O-])CN(CC(=O)[O-])c1ccc(NC(=O)CNc2ccc3cc(-c4nc5cc(OCCC[P+](c6ccccc6)(c6ccccc6)c6ccccc6)ccc5o4)ccc3c2)cc1OCCOc1c(F)cccc1N(CC(=O)[O-])CC(=O)[O-].[Br-].[K+].[K+].[K+].[K+] [BCa-2mito]	29 µM
CCCCCCOc1ccc2oc(-c3ccc4cc(NCC(=O)Nc5ccc(N(CC(=O)[O-])CC(=O)[O-])c(OCC(=O)N6CCOCC6)c5)ccc4c3)nc2c1.[K+].[K+] [BCa-3mem]	80 µM
CCN(CC)c1ccc(NC(=O)CNc2ccc3c(c2)C(C)(CC(=O)NCCN(C)C)c2cc(C(C)=O)ccc2-3)cc1 (stereo not drawn) [FHEt-1lyso]	300 µM
